# Laboratory results published in US20170052184A1.
# No constants are given. Whether binding was seen depends on the method and setting. A result given as binding can be weak or reduced; the word gives no strength.
# B1: Neo4 monoclonal antibody (antibody, V domains shown)
# VH: QIQLKESGPAVIKPSQSLSLTCIVSGFSITSSVYCWQWIRQPPGKGLEWMGRICYDGSVDYSPSITSRGTISRDTSLNKVFFQLSSVTNEDTAMYYCSRENHIDYYDTTYPSFDVWGAGTTVTVSS
# VL: DIVLTQSPASLIVSLGQRATISCRASKSVNEYGYTYMHWYQQKPGLPPKLLIYLASNLDSGVPARFSGSGSGTDFTLNIHPVEEEDAATYYCQHSRELPYTFGGGTKLEIKR
# Target: HCV p21 core protein (mature core) (Hepatitis C virus)
# Assay: Western blot screening of hybridoma supernatants and ascites
binder,measurement,value
B1,binding,binds
